Data from PMC9298768.

The chains behind the UniProt entries cited, without tags or fusion partners. Where a name states a change or a piece, a line headed by the entry shows the natural chain unless it says otherwise.
UniProt Q7JWU1: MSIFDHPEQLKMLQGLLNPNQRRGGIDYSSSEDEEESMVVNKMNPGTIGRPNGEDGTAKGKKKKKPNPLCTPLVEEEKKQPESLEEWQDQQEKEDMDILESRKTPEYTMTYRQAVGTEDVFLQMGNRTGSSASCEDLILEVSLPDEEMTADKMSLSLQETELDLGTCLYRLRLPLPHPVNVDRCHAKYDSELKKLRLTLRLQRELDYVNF
UniProt P02828: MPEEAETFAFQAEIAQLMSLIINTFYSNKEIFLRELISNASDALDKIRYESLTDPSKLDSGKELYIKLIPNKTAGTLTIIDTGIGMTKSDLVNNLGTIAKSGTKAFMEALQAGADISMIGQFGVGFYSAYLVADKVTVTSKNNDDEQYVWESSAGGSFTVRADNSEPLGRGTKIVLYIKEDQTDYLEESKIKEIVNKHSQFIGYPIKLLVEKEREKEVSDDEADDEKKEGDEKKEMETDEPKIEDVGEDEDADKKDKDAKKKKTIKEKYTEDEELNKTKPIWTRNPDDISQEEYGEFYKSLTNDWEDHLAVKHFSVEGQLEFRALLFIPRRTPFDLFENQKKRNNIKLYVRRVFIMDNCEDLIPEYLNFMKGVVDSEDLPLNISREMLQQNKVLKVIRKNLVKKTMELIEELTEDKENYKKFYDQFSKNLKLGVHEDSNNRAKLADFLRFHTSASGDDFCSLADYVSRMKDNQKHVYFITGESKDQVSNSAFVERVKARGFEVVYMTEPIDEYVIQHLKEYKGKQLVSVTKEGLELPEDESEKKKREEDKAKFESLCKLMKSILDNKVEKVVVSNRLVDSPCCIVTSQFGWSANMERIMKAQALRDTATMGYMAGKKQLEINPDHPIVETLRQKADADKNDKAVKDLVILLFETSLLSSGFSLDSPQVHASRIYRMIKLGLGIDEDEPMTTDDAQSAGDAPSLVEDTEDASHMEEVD
UniProt Q7JY49: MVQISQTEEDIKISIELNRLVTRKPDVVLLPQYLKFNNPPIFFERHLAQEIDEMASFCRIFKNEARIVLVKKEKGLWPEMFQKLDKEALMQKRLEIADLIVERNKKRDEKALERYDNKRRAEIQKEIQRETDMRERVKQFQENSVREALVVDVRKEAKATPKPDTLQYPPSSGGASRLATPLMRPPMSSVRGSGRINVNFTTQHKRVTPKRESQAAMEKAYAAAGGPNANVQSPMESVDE
UniProt Q9VH07: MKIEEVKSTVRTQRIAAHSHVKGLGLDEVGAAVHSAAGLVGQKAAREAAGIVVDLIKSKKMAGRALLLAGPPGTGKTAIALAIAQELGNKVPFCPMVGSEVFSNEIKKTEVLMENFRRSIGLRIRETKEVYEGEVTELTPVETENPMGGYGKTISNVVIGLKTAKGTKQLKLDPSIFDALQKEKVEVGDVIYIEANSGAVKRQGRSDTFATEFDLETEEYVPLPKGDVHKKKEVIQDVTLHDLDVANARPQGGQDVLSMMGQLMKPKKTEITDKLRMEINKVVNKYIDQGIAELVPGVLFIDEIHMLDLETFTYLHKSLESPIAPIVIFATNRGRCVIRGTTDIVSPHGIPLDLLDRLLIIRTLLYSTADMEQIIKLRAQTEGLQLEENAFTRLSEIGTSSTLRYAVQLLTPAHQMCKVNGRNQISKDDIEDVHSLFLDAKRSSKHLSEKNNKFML
UniProt Q9V3K3: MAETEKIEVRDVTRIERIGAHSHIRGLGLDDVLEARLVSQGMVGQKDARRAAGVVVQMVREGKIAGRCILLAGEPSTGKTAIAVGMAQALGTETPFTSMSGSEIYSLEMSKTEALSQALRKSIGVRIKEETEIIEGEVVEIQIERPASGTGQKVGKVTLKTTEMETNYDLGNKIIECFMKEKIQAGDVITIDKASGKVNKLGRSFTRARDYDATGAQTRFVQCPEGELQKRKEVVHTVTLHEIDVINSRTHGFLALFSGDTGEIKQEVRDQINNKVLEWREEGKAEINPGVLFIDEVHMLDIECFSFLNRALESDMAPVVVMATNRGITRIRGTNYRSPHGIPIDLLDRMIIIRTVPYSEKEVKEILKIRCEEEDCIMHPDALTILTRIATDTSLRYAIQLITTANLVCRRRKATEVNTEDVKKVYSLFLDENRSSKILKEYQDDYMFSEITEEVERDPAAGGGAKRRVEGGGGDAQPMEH

How the values were obtained:
Test in all cases: co-IP; FLAG-tagged bait and HA-tagged prey expressed in S2 cells, harvested after 48-72 h; FLAG Immunoprecipitation kit; Western blot with anti-FLAG and anti-HA together
[1] = target: Drosophila Dnaaf6, FLAG-tagged (Drosophila melanogaster) (UniProt Q7JWU1)
[2] = target: Drosophila Hsp90, FLAG-tagged (Drosophila melanogaster) (UniProt P02828)
[3] = target: T1, mouse Dnaaf6, FLAG-tagged (mouse) (UniProt Q3KNI6)
T1 sequence: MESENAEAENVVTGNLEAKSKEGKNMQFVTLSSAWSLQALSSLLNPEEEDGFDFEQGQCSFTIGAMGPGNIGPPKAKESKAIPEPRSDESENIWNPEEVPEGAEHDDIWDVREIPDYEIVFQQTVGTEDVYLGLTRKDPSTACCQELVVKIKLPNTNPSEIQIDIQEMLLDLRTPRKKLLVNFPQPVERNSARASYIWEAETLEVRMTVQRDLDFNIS

[4] = target: Drosophila Dnaaf4, FLAG-tagged (Drosophila melanogaster) (UniProt Q7JY49)

binding [1]	binding [2]	binding [3]	binding [4]	Substance
binds	no binding	binds	–	Drosophila Dnaaf4, HA-tagged (from UniProt Q7JY49)
binds	–	–	binds	Drosophila Pontin, HA-tagged (from UniProt Q9VH07 1-456)
binds	–	–	binds	Drosophila Reptin, HA-tagged (from UniProt Q9V3K3 1-481)

No constants are given. Whether binding was seen depends on the method and setting. In cells and extracts the contact can be indirect. For some of these results: A result given as binding can be weak or reduced; the word gives no strength. For some of these results: Where a sequence is shown, tags or fusion partners need not be part of it.
